# From patent US8916147B2, “Universal donor-derived tolerogenic cells for inducing non-syngeneic transplantation tolerance” (Yeda Research and Devolpment Co. Ltd., priority 2005, dated 2014)
# At least one structure is not confirmed: it was looked up by name or label, or the drawing left a doubt.
# Tested on: C3H/HeJ female mice
# Assay: T-cell-mediated bone marrow allograft rejection model
# Assay type: in vivo, mouse
# Details: rapamycin alone, 5 micrograms/day for 5 days; 10 Gy TBI, 15,000 host T-cells, 2 million Balb/c-nude bone marrow cells
smiles,measurement,value
CO[C@H]1C[C@@H]2CC[C@@H](C)[C@@](O)(O2)C(=O)C(=O)N2CCCC[C@H]2C(=O)O[C@H]([C@H](C)C[C@@H]2CC[C@@H](O)[C@H](OC)C2)CC(=O)[C@H](C)/C=C(\C)[C@@H](O)[C@@H](OC)C(=O)[C@H](C)C[C@H](C)/C=C/C=C/C=C/1C [rapamycin],survival of bone marrow allograft recipients,none of the recipients survived
